Measurements reported in publication PMC12519263 (ACS Pharmacology & Translational Science, 2025).

Test system: Itgb6, Col1a1, Col3a1, Fn1
Assay: Gene expression by qPCR on lung tissues of BLM mice (Study #1)
Assay type: in vivo, C57Bl/6 mice
Details: BLM vs Saline, lung tissue

## Bleomycin hydrochloride [BLM]
14d
  Log2FC COL1A1: 3.5
  Log2FC COL3A1: 2.7
  Log2FC FN1: 3.3
  Log2FC ITGB6: 0.92
21d
  Log2FC COL1A1: 3.2
  Log2FC COL3A1: 2.6
  Log2FC FN1: 3.6
  Log2FC ITGB6: 0.98
